Some entries share one result that the patent states for a list of compounds.
What was measured:
Type in all cases: in vivo
Musca domestica = Musca domestica test (sugar sponge); conditions: application rate 100 ppm, adults, after 2 days
Description: (§1) Solvent: dimethyl sulfoxide
To produce a suitable preparation of active compound, 10 mg of active compound are dissolved in 0.5 ml solvent, and the concentrate is diluted with water to the desired concentration. Prior to the assay, a piece or kitchen sponge is soaked with a mixture of sugar and compound solution and placed into a container. 10 adults (Musca domestica) are placed into the container and closed with a perforated lid. After 2 days mortality in % is determined. 100% means that all the flies have been killed; 0% means that none of the flies have been killed.

Ctenocephalides felis = Ctenocephalides felis test (CTECFE), blood feeding; conditions: application rate 100 ppm in cattle blood, adult fleas, after 2 days
Boophilus microplus = Boophilus microplus (dip); conditions: application rate 100 ppm, adult engorged females, after 7 days
Description: as §1
To produce a suitable preparation of active compound, 10 mg of active compound are dissolved in 0.5 ml solvent, and the concentrate is diluted with water to the desired concentration. Eight to ten adult engorged female Boophilus microplus ticks are placed in perforated plastic beakers and immersed in aqueous compound solution for one minute. Ticks are transferred to a filter paper in a plastic tray. Egg deposition of fertile eggs is monitored after. After 7 days mortality in % is determined 100% means that all the ticks have been killed; 0% means that none of the ticks have been killed.

Lucilia cuprina larvae = test: Lucilia cuprina test (larvae in minced horse meat); conditions: application rate 100 ppm, after 2 days
Amblyomma hebraeum = Amblyomma hebraeum test (AMBYHE), nymph immersion; conditions: application rate 100 ppm, nymphs, after 42 days
Description: as §1
To produce a suitable preparation of active compound, 10 mg of active compound are dissolved in 0.5 ml solvent, and the concentrate is diluted with water to the desired concentration. Nymphs of the tick Amblyomma hebraeum are placed in perforated plastic beakers and immersed in aqueous compound solution for one minute. Ticks are transferred to a filter paper in a Petri dish and incubated in a climate chamber for 42 days.
After 42 days mortality in % is determined 100% means that all the ticks have been killed; 0% means that none of the ticks have been killed.

SMILES	activity (mortality in %) (Musca domestica)	activity (mortality in %) (Ctenocephalides felis)	activity (mortality in %) (Boophilus microplus)	activity (mortality in %) (Lucilia cuprina larvae)	activity (mortality in %) (Amblyomma hebraeum)
O=C(NCc1ccc(N2CCC(c3cc(Cl)cc(Cl)c3)(C(F)(F)F)C2)cc1C(F)(F)F)C1CCC1 (centres unmarked) [1-150]	100%	80%	100%	100%	100%
O=C(CC1CC1)NCc1ccc(N2CCC(c3cc(Cl)cc(Cl)c3)(C(F)(F)F)C2)cc1C(F)(F)F (centres unmarked) [1-155]	100%	90%	100%	100%	100%
CSCC(=O)NCc1ccc(N2CCC(c3cc(Cl)cc(Cl)c3)(C(F)(F)F)C2)cc1C(F)(F)F (centres unmarked) [1-186]	100%	80%	100%	100%	100%
O=C(NCc1ccc(N2CCC(c3cc(Cl)cc(Cl)c3)(C(F)(F)F)C2)cc1C(F)(F)F)NC1CC1 (centres unmarked) [1-224]	100%	95%	100%	100%	100%
CNC(=O)N(C)Cc1ccc(N2CCC(c3cc(Cl)cc(Cl)c3)(C(F)(F)F)C2)cc1C(F)(F)F (centres unmarked) [1-258]	100%	100%	100%	100%	100%
CCC(=O)NCc1ccc(N2CCC(c3cc(Cl)cc(Cl)c3)(C(F)(F)F)C2)cc1Br (centres unmarked) [1-285]	100%	100%	100%	100%	100%
O=C(CC(F)(F)F)NCc1ccc(N2CCC(c3cc(C(F)(F)F)cc(C(F)(F)F)c3)(C(F)(F)F)C2)cc1C(F)(F)F (centres unmarked) [1-296]	100%	100%	100%	100%	100%
O=C(CCCl)NCc1ccc(N2CCC(c3cc(C(F)(F)F)cc(C(F)(F)F)c3)(C(F)(F)F)C2)cc1C(F)(F)F (centres unmarked) [1-297]	100%	100%	100%	100%	100%
CCC(=O)NCc1ccc(N2CCC(c3cc(C(F)(F)F)cc(C(F)(F)F)c3)(C(F)(F)F)C2)cc1Cl (centres unmarked) [1-307]	100%	100%	100%	100%	100%
O=C(CC(F)(F)F)NCc1ccc(N2CCC(c3cc(C(F)(F)F)cc(C(F)(F)F)c3)(C(F)(F)F)C2)cc1Cl (centres unmarked) [1-309]	100%	100%	100%	100%	100%
CCC(=O)NCc1ccc(N2CCC(c3cc(C(F)(F)F)cc(C(F)(F)F)c3)(C(F)(F)F)C2)cc1Br (centres unmarked) [1-312]	100%	100%	100%	100%	100%
O=C(CC(F)(F)F)NCc1ccc(N2CCC(c3cc(C(F)(F)F)cc(C(F)(F)F)c3)(C(F)(F)F)C2)cc1Br (centres unmarked) [1-314]	100%	100%	100%	100%	100%
O=C(NCc1ccc(N2CCC(c3cc(C(F)(F)F)cc(C(F)(F)F)c3)(C(F)(F)F)C2)cc1[N+](=O)[O-])C1CC1 (centres unmarked) [1-319]	100%	100%	100%	100%	100%

Source: patent publication US9266830B2, “Pesticidal arylpyrrolidines” (Bayer Intellectual Property GmbH, priority 2007, dated 2016)
